PMC7838873, “Purification and Characterization of Recombinant Expressed Apple Allergen Mal d 1” (Methods and Protocols, 2020)
No constants are given. Whether binding was seen depends on the method and setting. Sequences can lack the tags named with a protein.

Biological target: recombinant apple allergen Mal d 1 without polyhistidine-tag (apple (Malus domestica)) (UniProt Q9SYW3)
Assay: SDS-PAGE after reduction with DTT; 10 mM dithiothreitol added to the stored sample 10 min before denaturation; both purified

B1: recombinant apple allergen Mal d 1 without polyhistidine-tag (natural protein, apple (Malus domestica), UniProt Q9SYW3 1-159, looked up)
chain: MGVYTFENEFTSEIPPSRLFKAFVLDADNLIPKIAPQAIKQAEILEGNGGPGTIKKITFGEGSQYGYVKHRIDSIDEASYSYSYTLIEGDALTDTIEKISYETKLVACGSGSTIKSISHYHTKGNIEIKEEHVKAGKEKAHGLFKLIESYLKDHPDAYN
notes: n = 159 residues used for the CD calculation; pET-28b(+) vector, NcoI/XhoI, insert 485 bp; also called r-Mal d 1; source: E. coli BL21 star (DE3)pLysS, purified (anion-exchange chromatography, TOYOPEARL SuperQ-650S or GigaCap Q-650M)
B1 was tested, and the binding was “no binding (condition: with 10 mM DTT)”.
